Results are given in words; binding and its absence hold for the method and conditions named. In cells and extracts the contact can be indirect. A result given as binding can be weak or reduced; the word gives no strength.
Assays:
Assay in all cases: co-IP; Lnp-Myc co-expressed with Lnp-Flag or Flag-tagged truncations in COS-7 cells; Flag-tagged protein precipitated by anti-Flag agarose from lysates with 1% Triton X-100; blot with anti-Flag and anti-Myc
LnpΔLNPARK (human) = LnpΔLNPARK (human) (UniProt Q9C0E8)
LnpΔZnF (human) = LnpΔZnF (human) (UniProt Q9C0E8)
LnpΔCC1 (human) = LnpΔCC1 (human) (UniProt Q9C0E8)
LnpΔTM (human) = LnpΔTM (human) (UniProt Q9C0E8)

The chains behind the UniProt entries cited, without tags or fusion partners. Where a name states a change or a piece, a line headed by the entry shows the natural chain unless it says otherwise.
UniProt Q9C0E8: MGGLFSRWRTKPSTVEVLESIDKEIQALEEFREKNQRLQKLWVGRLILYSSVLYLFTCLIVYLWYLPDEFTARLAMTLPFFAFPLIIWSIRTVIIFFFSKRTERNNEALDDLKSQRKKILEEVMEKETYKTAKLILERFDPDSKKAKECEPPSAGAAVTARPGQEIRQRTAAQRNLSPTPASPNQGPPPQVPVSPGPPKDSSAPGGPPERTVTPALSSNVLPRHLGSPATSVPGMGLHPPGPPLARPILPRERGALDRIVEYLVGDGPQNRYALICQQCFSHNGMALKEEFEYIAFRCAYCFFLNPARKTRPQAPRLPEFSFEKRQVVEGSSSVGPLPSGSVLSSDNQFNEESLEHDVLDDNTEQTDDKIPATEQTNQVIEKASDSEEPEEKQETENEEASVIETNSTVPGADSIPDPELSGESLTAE

binding (LnpΔLNPARK (human)): binds
binding (LnpΔZnF (human)): binds
binding (LnpΔCC1 (human)): binds
binding (LnpΔTM (human)): binds
Substance: C-terminal Myc-tagged wild-type human Lnp (from UniProt Q9C0E8 1-428)
